Reference: paper PMC9147192, “Small Molecule Arranged Thermal Proximity Coaggregation (smarTPCA)—A Novel Approach to Characterize Protein–Protein Interactions in Living Cells by Similar Isothermal Dose–Responses” (International Journal of Molecular Sciences, 2022)
These are yes or no findings as the source states them, for the method shown. Binding seen in cells or lysates may run through a third protein. Some binding calls cover weakened binding; strength is not graded here.

Protein sequences, listed by entry. Tags and fused reporters are not part of them.
UniProt Q16539: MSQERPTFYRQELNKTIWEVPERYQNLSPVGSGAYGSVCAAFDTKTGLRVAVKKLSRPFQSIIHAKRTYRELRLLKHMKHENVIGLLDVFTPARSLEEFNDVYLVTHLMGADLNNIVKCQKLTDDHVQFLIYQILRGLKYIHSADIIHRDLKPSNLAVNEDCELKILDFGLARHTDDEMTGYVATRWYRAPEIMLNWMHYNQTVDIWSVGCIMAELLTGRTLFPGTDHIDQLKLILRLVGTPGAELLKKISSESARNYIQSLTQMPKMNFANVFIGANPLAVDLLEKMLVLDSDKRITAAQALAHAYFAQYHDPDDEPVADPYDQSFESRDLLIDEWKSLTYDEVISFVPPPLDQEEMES
UniProt Q16644: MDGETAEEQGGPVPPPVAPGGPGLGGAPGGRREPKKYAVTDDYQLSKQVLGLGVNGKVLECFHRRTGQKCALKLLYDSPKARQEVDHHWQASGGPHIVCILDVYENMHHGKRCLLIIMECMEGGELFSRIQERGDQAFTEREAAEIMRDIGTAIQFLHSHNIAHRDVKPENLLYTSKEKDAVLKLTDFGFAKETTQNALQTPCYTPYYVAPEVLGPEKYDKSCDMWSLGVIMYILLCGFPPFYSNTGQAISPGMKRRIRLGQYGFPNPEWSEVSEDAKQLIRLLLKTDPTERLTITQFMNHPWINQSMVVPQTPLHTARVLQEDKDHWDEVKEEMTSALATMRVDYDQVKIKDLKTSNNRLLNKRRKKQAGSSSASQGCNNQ

Biological target: mitogen-activated protein kinase 14 (human (endogenous in HL-60)) (UniProt Q16539)
Assay: small molecule arranged thermal proximity coaggregation (smarTPCA) by ITDR-CETSA; living HL-60 cells treated 1 h at 37 °C with 0.3 nM-20 µM AMG-548 or SB203580; […] °C for 3 min; soluble fraction read by immunoblot; similarity of dose-responses to that of MAPK14

binding: binds
Substance: MAP kinase-activated protein kinase 3 (from UniProt Q16644 1-382)
